# Reference: article PMC7264150 (Nature Communications, 2020)
# Protein sequences, listed by entry. Tags and fused reporters are not part of them.
# UniProt Q9RN43: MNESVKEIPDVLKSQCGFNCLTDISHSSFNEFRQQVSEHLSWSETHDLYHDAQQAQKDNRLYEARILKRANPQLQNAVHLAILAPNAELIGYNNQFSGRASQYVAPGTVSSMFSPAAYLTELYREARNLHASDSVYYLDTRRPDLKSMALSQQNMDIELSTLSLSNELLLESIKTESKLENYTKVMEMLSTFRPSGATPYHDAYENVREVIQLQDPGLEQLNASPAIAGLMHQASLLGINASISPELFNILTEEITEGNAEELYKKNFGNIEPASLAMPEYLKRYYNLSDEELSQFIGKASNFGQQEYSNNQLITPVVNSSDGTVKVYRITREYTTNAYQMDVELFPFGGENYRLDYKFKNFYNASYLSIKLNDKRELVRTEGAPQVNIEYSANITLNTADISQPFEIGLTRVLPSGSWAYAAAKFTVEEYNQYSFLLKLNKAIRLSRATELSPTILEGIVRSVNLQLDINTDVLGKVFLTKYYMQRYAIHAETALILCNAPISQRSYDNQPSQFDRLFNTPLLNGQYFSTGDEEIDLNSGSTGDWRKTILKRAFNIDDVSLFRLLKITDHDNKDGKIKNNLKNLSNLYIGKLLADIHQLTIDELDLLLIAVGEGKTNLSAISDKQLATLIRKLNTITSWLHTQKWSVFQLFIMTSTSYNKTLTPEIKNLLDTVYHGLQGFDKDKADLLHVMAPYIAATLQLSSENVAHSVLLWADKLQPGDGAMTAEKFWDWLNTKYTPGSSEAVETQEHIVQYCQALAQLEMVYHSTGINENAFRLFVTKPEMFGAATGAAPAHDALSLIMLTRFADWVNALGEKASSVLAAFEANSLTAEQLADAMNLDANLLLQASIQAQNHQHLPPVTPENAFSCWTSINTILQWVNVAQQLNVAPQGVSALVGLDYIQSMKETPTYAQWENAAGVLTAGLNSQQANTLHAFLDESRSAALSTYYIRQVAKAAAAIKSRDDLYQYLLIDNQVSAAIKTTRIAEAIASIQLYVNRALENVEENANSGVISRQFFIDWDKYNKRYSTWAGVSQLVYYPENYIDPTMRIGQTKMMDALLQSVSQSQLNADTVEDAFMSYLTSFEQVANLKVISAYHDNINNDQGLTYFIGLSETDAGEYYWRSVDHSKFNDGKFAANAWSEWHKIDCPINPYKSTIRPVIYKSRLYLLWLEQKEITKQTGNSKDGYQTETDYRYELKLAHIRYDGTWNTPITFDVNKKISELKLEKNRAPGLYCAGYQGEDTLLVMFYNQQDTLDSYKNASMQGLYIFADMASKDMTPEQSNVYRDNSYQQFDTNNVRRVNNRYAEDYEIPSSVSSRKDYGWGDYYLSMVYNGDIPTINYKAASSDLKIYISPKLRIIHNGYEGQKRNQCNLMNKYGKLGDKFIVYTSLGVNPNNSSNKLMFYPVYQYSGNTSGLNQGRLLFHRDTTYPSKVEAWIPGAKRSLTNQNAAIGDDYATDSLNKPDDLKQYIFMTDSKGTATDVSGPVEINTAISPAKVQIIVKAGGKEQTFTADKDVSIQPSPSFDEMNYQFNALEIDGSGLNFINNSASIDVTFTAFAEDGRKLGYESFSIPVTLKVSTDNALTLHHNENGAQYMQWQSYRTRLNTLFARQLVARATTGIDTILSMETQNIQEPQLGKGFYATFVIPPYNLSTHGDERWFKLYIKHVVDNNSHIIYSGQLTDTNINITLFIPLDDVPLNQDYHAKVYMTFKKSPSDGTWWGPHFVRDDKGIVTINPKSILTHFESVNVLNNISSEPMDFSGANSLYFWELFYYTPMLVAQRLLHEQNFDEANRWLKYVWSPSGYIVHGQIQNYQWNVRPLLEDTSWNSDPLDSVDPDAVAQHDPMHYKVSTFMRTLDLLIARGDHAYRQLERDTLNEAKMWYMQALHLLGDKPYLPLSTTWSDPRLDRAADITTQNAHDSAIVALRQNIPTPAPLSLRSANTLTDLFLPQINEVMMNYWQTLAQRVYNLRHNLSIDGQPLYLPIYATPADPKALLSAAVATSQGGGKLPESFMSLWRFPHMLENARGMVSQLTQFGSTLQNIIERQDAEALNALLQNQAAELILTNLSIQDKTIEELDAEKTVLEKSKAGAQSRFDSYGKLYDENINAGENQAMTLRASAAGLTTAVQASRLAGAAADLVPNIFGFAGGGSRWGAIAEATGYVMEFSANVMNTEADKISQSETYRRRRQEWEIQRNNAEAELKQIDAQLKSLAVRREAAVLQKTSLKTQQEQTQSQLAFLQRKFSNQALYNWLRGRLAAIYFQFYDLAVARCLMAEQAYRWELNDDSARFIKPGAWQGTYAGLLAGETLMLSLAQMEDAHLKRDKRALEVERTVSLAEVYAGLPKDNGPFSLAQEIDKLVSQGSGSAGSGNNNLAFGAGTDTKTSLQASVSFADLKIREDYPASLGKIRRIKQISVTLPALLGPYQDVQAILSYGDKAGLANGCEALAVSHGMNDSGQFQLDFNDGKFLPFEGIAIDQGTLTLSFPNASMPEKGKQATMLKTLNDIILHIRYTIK
# Results are given in words; binding and its absence hold for the method and conditions named. Some binding calls cover weakened binding; strength is not graded here.
# Biological target: Photorhabdus luminescens TcdA1 (Photorhabdus luminescens) (UniProt Q9RN43)
# Assay: cryo-EM structure; both purified
substance,measurement,value
Photorhabdus luminescens TcdA1 (from UniProt Q9RN43 1-2516),binding,binds
